# Measurements taken from PubChem BioAssay AID493014 (National Center for Advancing Translational Sciences (NCATS), 2011).
# This is one part of the list. Further columns of the screen follow, without active or inactive calls. The list favours compounds with an active or inconclusive main result. Potencies come from curve fits of mixed quality, noted in brackets.
# Test: qHTS Assay to Find Inhibitors of Chronic Active B-Cell Receptor Signaling
# Conditions: ABC-DLBCL IkBa-CBG/CBR reporter, luminescence ratio (green luciferase fused to IkBa over red control in TMD8 lymphoma cells), 4 h
# How it was run: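 Cell line TMD8 (human ABC DLBCL), stably expressing tet-inducible CBG68-IkBa fusion and CBR; IMDM/0.5% FBS; cpd up to 46 uM; dox induction, 4 h, 37C/5% CO2; dual luminescence; green/red ratio; MG132 control.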
# [1] = measured here: CBR red luminescence, cell number
SMILES,AC50 (measured here: IkBa-CBG green luminescence),AC50 [1]
NC(=O)NC[C@@H]1CC[C@@H](Cc2ccc(-c3ccccc3)cc2)O1,"11.6 µM [falling, partial curve]",–
S=c1[nH]nc(COc2ccc3c(c2)OCO3)n1-c1ccccc1,–,"1.64 µM [falling, partial curve, poor fit]"
COc1nc(Oc2ccc(=O)n(C)n2)nc(N(C)C)n1,–,"2.06 µM [falling, partial curve, poor fit]"
CSc1ccccc1N1CCN(C(=O)Nc2ccc3c(c2)NC(=O)CO3)CC1,–,"8.91 µM [falling, partial curve, poor fit]"
N#CC1=C(SCC(=O)Nc2ccc(C(=O)O)cc2)NC(=O)CC1c1ccco1 (stereo unspecified),–,"22.4 µM [falling, partial curve, poor fit]"
COC(=O)c1ccc(C)c(NC(=O)CCNC(=O)c2ccc([N+](=O)[O-])cc2)c1,–,"3.26 µM [rising, partial curve, poor fit]"
C[C@]12c3[nH]c4ccc(Cl)cc4c3CCN1C(=O)[C@@H](CC(=O)NCCCn1ccnc1)C[C@@H]2C(=O)N1CCCCC1,–,"0.411 µM [rising, full curve, poor fit]"
CCN(CC)C(=O)CSc1nnc(-c2ccc(S(=O)(=O)N3CCCC3)cc2)o1,–,"0.0146 µM [rising, full curve, poor fit]"
COc1ccc(C(=O)COC(=O)CNC(=O)C2CCCCC2)c(OC)c1,–,"9.2 µM [rising, partial curve, poor fit]"
NC(=O)c1cc([N+](=O)[O-])ccc1NCCc1ccccc1,–,"10 µM [falling, partial curve, poor fit]"
COc1ccc(CC(=O)N(Cc2cc3cc(OC)ccc3[nH]c2=O)C(C)C)cc1,–,"2.06 µM [rising, partial curve, poor fit]"
O=C(COC(=O)CCc1c[nH]c2ccccc12)Nc1ccccc1,–,"7.31 µM [rising, partial curve, poor fit]"
Cc1nn(-c2cccc(C(F)(F)F)c2)c(Cl)c1/C=N/Nc1cccc(C(=O)O)c1,–,"16.4 µM [falling, single point]"
Cc1ccc(NC(=O)C(C)Sc2nnc(-c3cccnc3)n2-c2ccccc2)cc1 (stereo unspecified),–,"20.6 µM [falling, single point]"
CCn1cc(C(=O)NCCCN2CC(C)CC(C)C2)c(=O)c2cc(S(=O)(=O)N(C)C)ccc21 (stereo unspecified),–,"20.6 µM [rising, partial curve, poor fit]"
COCC(=O)N1CCC(n2nnc3cc(C(F)(F)F)ccc32)CC1,–,"11.2 µM [rising, partial curve]"

# Rewritten bar-delimited: 2 of the compounds above
SMILES | AC50 (measured here: IkBa-CBG green luminescence) | AC50 [1]
CCN(CC)C(=O)CSc1nnc(-c2ccc(S(=O)(=O)N3CCCC3)cc2)o1 | – | 0.0146 µM [rising, full curve, poor fit]
COc1ccc(C(=O)COC(=O)CNC(=O)C2CCCCC2)c(OC)c1 | – | 9.2 µM [rising, partial curve, poor fit]
